Reference: PubChem BioAssay AID504793 (Drosophila RNAi Screening Center, 2011)
The deposit covers about 23,000 reagents; below is an unselected part of those that have a named target and a result. Over the whole deposit, 62 (0.27%) are marked active. 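Calls come from follow-up tests whose scores are not deposited, so confirmed genes may have low counts here; counts are not normalised per plate.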 Raw values are not corrected between plates. The numbers tell different reagents against one gene apart. A plus sign joins genes that one reagent is predicted to hit.

Screen: 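Knock-downs allowing continued mitosis even though DNA is damaged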 (primary screen)
Cells: Drosophila S2R+ cells
Knock-down reagent: long dsRNA against Drosophila genes, about 0.25 µg dsRNA per well
Time to read-out: 4 days of dsRNA, then 4 hours of drug before read-out
Conditions: doxorubicin 0.5 µM for 4 hours to cause double-strand breaks, in cells also given a low, harmless dose of dsRNA against nbs to sensitise the assay
Measured: 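Mitotic index as the number of phospho-histone H3-positive cells in each well following doxorubicin, given as raw counts without normalisation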
Scale: mitotic cells: higher = more cells in mitosis, weaker G2 arrest
Active means: 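Genes are called active only when high mitotic counts were reproduced with independent dsRNAs and mitosis was checked for delay without damage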
Meaning of the calls: active = confirmed in follow-up tests; inactive = not confirmed

gene	dsRNA no.	mitotic cells, replicate 1	Call
CG15861	1	5	inactive
CG15861	2	6	inactive
twy (twitchy)	1	2	inactive
CG5618	1	5	inactive
CG5618	2	4	inactive
RfC4 (Replication factor C subunit 4)	1	3	inactive
RfC4 (Replication factor C subunit 4)	2	4	inactive
Tom7 (Translocase of outer membrane 7)	1	8	inactive
Tom7 (Translocase of outer membrane 7)	2	9	inactive
en (engrailed)	1	3	inactive
en (engrailed)	2	6	inactive
CG5388	1	2	inactive
sad (shadow)	1	6	inactive
sad (shadow)	2	7	inactive
BCAS2	1	8	inactive
BCAS2	2	5	inactive
CG1647	1	2	inactive
kraken	1	2	inactive
kraken	2	3	inactive
Tengl3 (Testis EndoG-Like 3)	1	11	inactive
Tengl3 (Testis EndoG-Like 3)	2	3	inactive
CG18258	1	6	inactive
CG18258	2	3	inactive
ATPsynCF6L (ATP synthase, coupling factor 6-like)	1	5	inactive
ATPsynCF6L (ATP synthase, coupling factor 6-like)	2	5	inactive
CG18417	1	10	inactive
CG18417	2	10	inactive
Arpc5 (Actin-related protein 2/3 complex, subunit 5)	1	4	inactive
CG15306	1	11	inactive
CG15306	2	5	inactive
CG15306	3	5	inactive
squ (squash)	1	2	inactive
Ppi1 (Protein phosphatase 1c interacting protein 1)	1	5	inactive
CG13630	1	3	inactive
Cdc37 (Cell division cycle 37)	1	1	inactive
Cdc37 (Cell division cycle 37)	2	3	inactive
Sema1a (Semaphorin 1a)	1	5	inactive
nxf2 (nuclear RNA export factor 2)	1	4	inactive
nxf2 (nuclear RNA export factor 2)	2	4	inactive
stet (stem cell tumor)	1	9	inactive
stet (stem cell tumor)	2	5	inactive
CG30287	1	21	inactive
CG15368	1	7	inactive
CG15368	2	8	inactive
CG43338	1	4	inactive
wrd (well-rounded)	1	5	inactive
wrd (well-rounded)	2	11	inactive
wrd (well-rounded)	3	6	inactive
CG13386	1		inactive
CG13386	2	2	inactive
Hecw (Hecw ubiquitin protein ligase)	1	5	inactive
Hecw (Hecw ubiquitin protein ligase)	2	8	inactive
Hecw (Hecw ubiquitin protein ligase)	3	5	inactive
CG30377	1	8	inactive
CG30377	2	9	inactive
CG5001	1	3	inactive
CG5001	2	5	inactive
gol (goliath)	1	4	inactive
CG34169	1	7	inactive
Ns4 (Nucleostemin 4)	1	8	inactive
Ns4 (Nucleostemin 4)	2	4	inactive
CG32413	1	10	inactive
Camta (Calmodulin-binding transcription activator)	1	3	inactive
Camta (Calmodulin-binding transcription activator)	2	17	inactive
Camta (Calmodulin-binding transcription activator)	3	18	inactive
Camta (Calmodulin-binding transcription activator)	4	6	inactive
Camta (Calmodulin-binding transcription activator)	5	2	inactive
Regnase-1 (Regnase 1)	1	13	inactive
dgt1 (dim gamma-tubulin 1)	1	29	active
RpS14a (Ribosomal protein S14a)	1	10	inactive
Arl6 (ADP ribosylation factor-like 6)	1	2	inactive
CG11007	1	6	inactive
Cyp4e1 (Cytochrome P450 4e1)	1	2	inactive
Cyp4e1 (Cytochrome P450 4e1)	2	4	inactive
SerRS-m (Seryl-tRNA synthetase, mitochondrial)	1	6	inactive
Ugt303A1 (UDP-glycosyltransferase family 303 member A1)	1	5	inactive
ect (ectodermal)	1	14	inactive
ect (ectodermal)	2	6	inactive
ect (ectodermal)	3	5	inactive
ect (ectodermal)	4	10	inactive
CG14074	1	4	inactive
CG14074	2	9	inactive
Hil (Hillarin)	1	6	inactive
Hil (Hillarin)	2	3	inactive
SREBP (Sterol regulatory element binding protein)	1	3	inactive
Hdc (Histidine decarboxylase)	1	7	inactive
Hdc (Histidine decarboxylase)	2	10	inactive
Obp51a (Odorant-binding protein 51a)	1	8	inactive
Ubx (Ultrabithorax)	1	7	inactive
Ubx (Ultrabithorax)	2	7	inactive
Ubx (Ultrabithorax)	3	9	inactive
wisp (wispy)	1	10	inactive
wisp (wispy)	2	7	inactive
if (inflated)	1	10	inactive
Cht11 (Chitinase 11)	1	9	inactive
Cht11 (Chitinase 11)	2	6	inactive
Mst33A	1	6	inactive
Mst33A	2	3	inactive
stck (steamer duck)	1	7	inactive
Ctl1 (Choline transporter-like 1)	1	6	inactive
CG11089 + CG31381	1	9	inactive
CG11089 + CG31381	2	6	inactive
CG11089 + CG31381	3	6	inactive
Nph (Nucleophosmin)	1	17	inactive
CG33490	1	4	inactive
CG14401	1	5	inactive
CG14401	2	5	inactive
CG14401	3	10	inactive
RpL37-1 (Ribosomal protein L37-1)	1	9	inactive
RpL37-1 (Ribosomal protein L37-1)	2	9	inactive
